Laboratory results as given in patent US9926576B2, “Prevention of bacterial growth in fermentation processes” (E. I. DU PONT DE NEMOURS AND COMPANY, priority 2007, dated 2018).

Tested on: bacteria in fermentation system
Test: Batch fermentations at dry-grind ethanol plant, SCD treated vs antibiotic treated
Settings: means of 16 antibiotic (0.0001%) and 15 SCD (final 0.041%) batch fermentations

Virginiamycin [Antibiotic]
Acetic Acid, % (22 Hours): 0.02%
Acetic Acid, % (36 Hours): 0.03%
Acetic Acid, % (10 hours): 0.03%
Acetic Acid, % (Drop (end of fermentation)): 0.05%
Acetic Acid, % (Inoculant): 0.02%
